Measured values reported in paper PMC9964319, “Half-Sandwich Rhodium Complexes with Releasable N-Donor Monodentate Ligands: Solution Chemical Properties and the Possibility for Acidosis Activation” (Pharmaceutics, 2023).

Key:
[1] = system: Colo205 human colon adenocarcinoma cell line (doxorubicin-sensitive); experiment: MTT assay, cytotoxicity at pH 6 and 7; assay type: cell-based
[2] = system: Colo320 human colon adenocarcinoma cell line (doxorubicin-resistant); experiment: MTT assay, cytotoxicity at pH 6 and 7; assay type: cell-based

`Clc1ccc(COC(Cn2ccnc2)c2ccc(Cl)cc2Cl)cc1` (stereo not shown) [econ, econazole, reference compound] was tested, and the IC50 ([1]; COLO 205, pH 6, 72 h incubation) was 23.1 ± 2.1 µM, the IC50 ([1]; COLO 205, pH 7, 72 h incubation) was 18.2 ± 0.7 µM and the IC50 ([2]; COLO 320, pH 6, 72 h incubation) was 10.3 ± 1.5 µM. For the same molecule, the IC50 ([2]; COLO 320, pH 7, 72 h incubation) was 11.4 ± 0.4 µM.
